# Reference: patent US20150191445A1, “ACYL-HYDRAZONE AND OXADIAZOLE COMPOUNDS, PHARMACEUTICAL COMPOSITIONS CONTAINING THE SAME AND USES THEREOF” (Universidade Federal de Santa Catarina, priority 2011, published 2015)
# Test system: HL-60 cells
# Experiment: DNA microarray gene expression and GSEA analysis
# Type: cell-based, human
# Conditions: 125 nM, 6 h, FC>1.5, p<0.05
# Experimental: The cells were incubated for 12 hours in fresh medium before the experiments. Two million cells from the leukemic cell line HL60, in triplicate, were treated with a 125 nM dose of compound 07 or with dimethylsulfoxide (DMSO) vehicle for 6 h, in DMEM supplemented with 10% fetal bovine serum. At the end of this period, the cells were recovered by brief centrifugation and lysed in a solution of guanidine of the RNAspin Mini RNA Isolation kit (GE).
# Total RNA was extracted from cells using the RNAspin Mini RNA Isolation kit (GE) following the manufacturer's instructions. A total of 100 ng of RNA was used to prepare biotinylated complementary RNA probes (Bio-cRNA), by cDNA synthesis followed by amplification by in vitro transcription, using the GeneChip WT cDNA Synthesis and Amplification kit (Affymetrix) according to the recommendations of the manufacturer. […]
# the results of the microarray hybridization were read in the Affymetrix Gene Chip Scanner 3000-7G. Data were analyzed in the Bioconductor platform. […] The list of differentially expressed genes were analyzed using the CMap (http://www.broad.mit.edu/cmap/) for identification of possible action mechanisms related to the action of known compounds (Lamb, J., Crawford E. D. The Connectivity Map: Using Gene-Expression Signatures to Connect Small Molecules, Genes and Disease Science 2006, 313, 1929-1935). […]
compound,measurement,value
COc1cc(C(=O)NN=Cc2cccc3ccccc23)cc(OC)c1OC [Compound 07],"transcription activation, number of genes",353 genes
same,"transcription repression, number of genes",102 genes
